TEAD-luciferase reporter activity data for 35 compounds are collected here from the supplement of paper PMC10735217.

This assay has as its system HEK293A TEAD-LUC reporter. The experiment in a line: TEAD-luciferase reporter activity (YAP activation), robust Z score vs plate; higher = stronger YAP/TEAD activation. The settings on record: 24 h.

Molecules are shown by their SMILES. Where a name gives a salt, the structure may show the parent alone. The list shows a part of the results. Repeats in this data set agree poorly, so a single value says little.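 Human kidney-derived cells stably carry a construct in which eight TEAD-binding elements drive luciferase, measured by luminescence in a drug-repurposing library screen. A hit is any compound whose signal exceeds the plate mean by more than five robust Z scores.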

For `CN(C)C[C@@H]1CCn2cc(c3ccccc32)C2=C(C(=O)NC2=O)c2cn(c3ccccc23)CCO1`, the TEAD-luciferase reporter activity is, setting by setting: (compound concentration: 200 nM) inactive: 1.04; (compound concentration: 2 uM) inactive: 0.101; (compound concentration: 10 uM) inactive: 2.2.
`Nc1ccc(C(=O)N2CCc3cc(S(=O)(=O)N4C[C@H](c5ccccc5)NC4=O)ccc32)cc1`: the TEAD-luciferase reporter activity by setting is: (compound concentration: 200 nM) inactive: -0.582; (compound concentration: 2 uM) inactive: 3.97; (compound concentration: 10 uM) active: 8.5.
For `COc1nc(N)nc2c1ncn2[C@@H]1O[C@H](CO)[C@@H](O)[C@@H]1O` [nelarabine], in that order: inactive: -0.384, inactive: -1.16 and inactive: 0.155.
For the compound `CO/N=C(\C(=O)NC1C(=O)N2C(C(=O)O)=C(COC(C)=O)CSC12)c1csc(N)n1` (stereo not drawn) [cefotaxime salt, delayed], the TEAD-luciferase reporter activity reads like this: (compound concentration: 200 nM) inactive: -0.418; (compound concentration: 10 uM) inactive: -0.936.
Take `CO/N=C(\C(=O)NC1C(=O)N2C(C(=O)O)=C(COC(C)=O)CSC12)c1csc(N)n1` (stereo not drawn) [cefotaxime salt]: under “compound concentration: 2 uM”, the TEAD-luciferase reporter activity was inactive: 1.12.
Consider `CCC(C)C(C(=O)O)n1sc2ccccc2c1=O` (stereo not drawn), for which the TEAD-luciferase reporter activity (compound concentration: 200 nM) is inactive: 0.0213, the TEAD-luciferase reporter activity (compound concentration: 2 uM) was inactive: -0.751 and the TEAD-luciferase reporter activity (compound concentration: 10 uM) is inactive: 3.39.
Consider `Cc1ccc(C(=O)NC2CCN(c3ccc4ncc(-c5cccc(C(F)(F)F)c5)n4n3)CC2)cc1`, for which the TEAD-luciferase reporter activity was inactive: -1.64 (compound concentration: 200 nM) and inactive: 1.38 (compound concentration: 10 uM).
As for `COCCN(CCOC)C(=O)CCCC#Cc1cccc2nc(Cn3nc(-c4cccc(O)c4)c4c(N)ncnc43)n(Cc3ccccc3Cl)c(=O)c12`, the TEAD-luciferase reporter activity reads like this: (compound concentration: 200 nM) inactive: 0.135; (compound concentration: 2 uM) inactive: -1.13; (compound concentration: 10 uM) inactive: 2.52.
For the compound `NC(=O)c1cc(C#CCCN(O)C(N)=O)ccc1OCCN1CCN(C(c2ccccc2)c2ccc(Cl)cc2)CC1` (stereo not drawn), the TEAD-luciferase reporter activity is inactive: -0.366 (compound concentration: 200 nM), inactive: -0.00518 (compound concentration: 2 uM) and inactive: -0.353 (compound concentration: 10 uM).
`COc1ccc(N2CCc3c(-n4ccc(N5CCNC5=O)n4)cc(C)nc32)c(C)c1` [Emicerfont]: the TEAD-luciferase reporter activity (compound concentration: 200 nM) is inactive: 0.801, the TEAD-luciferase reporter activity (compound concentration: 2 uM) is inactive: 0.256 and the TEAD-luciferase reporter activity (compound concentration: 10 uM) was inactive: 0.721.
Turning to `CC(=O)NC[C@H]1CN(c2ccc(N3CCN(C(=O)CO)CC3)c(F)c2)C(=O)O1` [Eperezolid], the TEAD-luciferase reporter activity was inactive: -0.377 (compound concentration: 200 nM), inactive: -1.17 (compound concentration: 2 uM) and inactive: -0.318 (compound concentration: 10 uM).
For `CCCC[C@H](NC(=O)N[C@@H](CC(=O)O)c1ccc2c(c1)OCO2)C(=O)N(Cc1cccs1)Cc1cccs1`, in that order: inactive: -0.503, inactive: -1.65 and inactive: -0.603.
As for `CC[C@H](C)[C@H](N)C(=O)N[C@@H](CCSC)C(=O)N[C@@H](CC(=O)O)C(=O)N[C@@H](CCC(N)=O)C(=O)N[C@H](C(=O)N1CCC[C@H]1C(=O)N[C@@H](Cc1ccccc1)C(=O)N[C@@H](CO)C(=O)N[C@H](C(=O)O)C(C)C)C(C)C` [Disomotide], the TEAD-luciferase reporter activity (compound concentration: 200 nM) was inactive: -0.992, the TEAD-luciferase reporter activity (compound concentration: 2 uM) is inactive: 2.49 and the TEAD-luciferase reporter activity (compound concentration: 10 uM) is inactive: 2.
Regarding `CC1(C)Oc2cc3oc(C(=O)O)cc(=O)c3cc2-c2ccccc21`, the TEAD-luciferase reporter activity is, setting by setting: (compound concentration: 200 nM) active: 7.05; (compound concentration: 2 uM) inactive: -0.164; (compound concentration: 10 uM) inactive: 0.546.
As to `Nc1cc(C(Cl)=C(Cl)Cl)c(S(N)(=O)=O)cc1S(N)(=O)=O`, the TEAD-luciferase reporter activity by setting is: (compound concentration: 200 nM) inactive: -0.362; (compound concentration: 10 uM) inactive: 4.5.
Turning to `Nc1cc(C(Cl)=C(Cl)Cl)c(S(N)(=O)=O)cc1S(N)(=O)=O` [Clorsulon], where the note is “compound concentration: 2 uM”, the TEAD-luciferase reporter activity was inactive: -1.42.
Turning to `O=C(CC(c1ccccc1)c1ccccc1)N1CCN(C(c2ccccc2)c2ccccc2)CC1`, the TEAD-luciferase reporter activity reads like this: (compound concentration: 200 nM) inactive: -0.0932; (compound concentration: 2 uM) inactive: -1.26; (compound concentration: 10 uM) inactive: -0.438.
For `Oc1ccccc1CCOc1ccc(F)cc1`, in that order: active: 6.83, inactive: 0.337 and inactive: -0.174.
Consider `Cc1ncc(CO)c(CO)c1O.O=C1CC[C@@H](C(=O)O)N1` [Pyridoxine pyrolate], for which the TEAD-luciferase reporter activity by setting is: (compound concentration: 200 nM) inactive: -1.29; (compound concentration: 2 uM) inactive: -0.772; (compound concentration: 10 uM) inactive: -1.42.
For `Cc1cc2cc(Oc3ccnc(Nc4cccc(CS(=O)(=O)NCCN(C)C)c4)n3)ccc2[nH]1` [Sulfatinib], in that order: inactive: 2.65, inactive: -1.16 and inactive: -0.899.
Take `COc1ccc(CC(=O)N2CCCC3(Cc4ccccc4CN3C(=O)CN)C2)cc1` (stereo not drawn): the TEAD-luciferase reporter activity runs as follows: (compound concentration: 200 nM) inactive: 4.24; (compound concentration: 10 uM) inactive: 0.536.
Consider `CCCCCCCCCCCCCCCCCCO`, for which the TEAD-luciferase reporter activity reads like this: (compound concentration: 200 nM) inactive: 0.217; (compound concentration: 2 uM) inactive: -0.193; (compound concentration: 10 uM) inactive: 0.304.
In the same order, the values of `COc1ccc(/C(=C/F)CN)cc1OC` are inactive: -0.651, inactive: -0.691 and inactive: 1.45.
On to `O=C(Cn1ccnc1[N+](=O)[O-])NCCO` [Etanidazole], for which the TEAD-luciferase reporter activity (compound concentration: 2 uM) was inactive: 0.706.
Turning to `O=C(Cn1ccnc1[N+](=O)[O-])NCCO`, the TEAD-luciferase reporter activity is, setting by setting: (compound concentration: 200 nM) inactive: -0.965; (compound concentration: 10 uM) inactive: -0.295.
For the compound `CNC(=O)c1ccc(Nc2ncc(C(F)(F)F)c(NCc3nccnc3N(C)S(C)(=O)=O)n2)cc1` [Defactinib hydrochloride], the TEAD-luciferase reporter activity runs as follows: (compound concentration: 200 nM) inactive: -1.64; (compound concentration: 2 uM) inactive: -2.59; (compound concentration: 10 uM) inactive: -2.31.
For `O=C(O)C1=C(c2ccc3c(c2)OCO3)c2ccccc2S(=O)(=O)N1c1cc2c(cc1Cl)OCO2`, in that order: inactive: -0.627, inactive: -0.875 and inactive: 1.41.
In the same order, the values of `CC(C)(C)c1csc(COc2cccc(C(=O)Nc3cc(CCCS(=O)(=O)c4ccc(Cl)cc4)ccc3OCc3nn[nH]n3)c2)n1` are inactive: -0.811, inactive: 0.085 and inactive: -0.647.
For `CC(C)(NC(=O)c1nc(Cl)c(N)nc1N)C(=O)NCCNCC(O)COc1cccc2ccccc12` (stereo not drawn), in that order: inactive: -1.35, inactive: -1.21 and inactive: -0.838.
`Nc1nc2c([nH]1)c(=O)n(CC1CC1)c(=O)n2CC1CC1` [Cipamfylline]: the TEAD-luciferase reporter activity was inactive: -1.22 (compound concentration: 200 nM), inactive: 0.627 (compound concentration: 2 uM) and inactive: 0.409 (compound concentration: 10 uM).
As for `CC(=O)c1ccc2c(c1)N(CCCN(C)C)c1ccccc1S2`, the TEAD-luciferase reporter activity reads like this: (compound concentration: 200 nM) inactive: -0.38; (compound concentration: 2 uM) inactive: -0.381; (compound concentration: 10 uM) inactive: -0.153.
For `CCN(CC)CCOc1cccc(-c2cn3c(n2)sc2ccccc23)c1`, in that order: inactive: -1.27, inactive: 0.723 and inactive: 3.82.
As for `O=C(NC1CC1)C1CCCN(c2nc3ncccc3o2)C1` (stereo not drawn), the TEAD-luciferase reporter activity reads like this: (compound concentration: 200 nM) inactive: -1.61; (compound concentration: 10 uM) inactive: 0.283.
Regarding `CCCN(CCC)C(=O)C(Cc1ccc(OCCCN2CCN(C)CC2)cc1)NC(=O)c1cccc(F)c1` (stereo not drawn), the TEAD-luciferase reporter activity was inactive: 2.2 (compound concentration: 200 nM), inactive: -0.455 (compound concentration: 2 uM) and inactive: 0.301 (compound concentration: 10 uM).
For `CC(=O)Oc1ccccc1C(=O)Oc1ccccc1` [phenyl 2-(acetyloxy)benzoate], in that order: inactive: -0.826, inactive: -1.17 and inactive: 3.93.
